Measurements taken from the supplement of paper PMC3334620.
In all, about 33,000 sequences were measured (“E-score (-0.5 to 0.5)”: median about -0.015, highest 2% from about 0.3 on). Some of the results follow.

molecular target: T1, Abf1 (UniProt P14164); test: PBM E-score (8-mer binding enrichment) (E-score (-0.5 to 0.5)); higher = stronger / more preferred TF binding; settings: protein concentration: 200 nM; construct: GST-full length
T1 sequence: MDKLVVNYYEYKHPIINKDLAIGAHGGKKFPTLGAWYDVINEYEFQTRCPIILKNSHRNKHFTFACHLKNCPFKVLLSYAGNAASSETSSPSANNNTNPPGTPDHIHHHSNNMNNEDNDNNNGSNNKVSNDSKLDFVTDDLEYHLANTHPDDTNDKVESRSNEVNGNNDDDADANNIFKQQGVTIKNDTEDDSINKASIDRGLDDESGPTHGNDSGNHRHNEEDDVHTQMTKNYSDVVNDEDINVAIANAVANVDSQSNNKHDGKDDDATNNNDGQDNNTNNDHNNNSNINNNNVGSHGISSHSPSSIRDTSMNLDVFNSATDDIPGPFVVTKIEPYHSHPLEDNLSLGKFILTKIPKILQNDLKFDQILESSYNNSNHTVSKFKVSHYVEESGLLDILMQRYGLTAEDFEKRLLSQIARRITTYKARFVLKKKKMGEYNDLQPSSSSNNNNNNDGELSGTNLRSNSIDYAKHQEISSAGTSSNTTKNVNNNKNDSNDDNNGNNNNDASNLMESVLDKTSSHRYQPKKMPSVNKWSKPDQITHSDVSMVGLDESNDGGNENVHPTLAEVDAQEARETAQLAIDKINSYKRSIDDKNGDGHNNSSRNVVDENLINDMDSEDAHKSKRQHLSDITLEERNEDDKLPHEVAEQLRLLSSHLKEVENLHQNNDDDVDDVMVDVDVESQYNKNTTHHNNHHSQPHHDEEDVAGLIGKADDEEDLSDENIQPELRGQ
Outline: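 PURExpress in vitro transcription/translation supplied GST-tagged yeast transcription factors, either full-length or DNA-binding domain. Applied at about 100-200 nM to universal all-10-mer Agilent arrays double-stranded by primer extension, the bound protein was detected with fluorescent anti-GST. E-scores, modified Wilcoxon-Mann-Whitney statistics, were given by the Universal PBM Analysis Suite to ungapped eight-base words pooled with their reverse complements after masliner normalisation.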

| Sequence | PBM E-score |
| --- | --- |
| GAACGTCC | 0.019 |
| CCCGCAGC | -0.237 |
| CTATCTGC | -0.13 |
| GGGAAATA | 0.0587 |
| GCCACGTA | 0.0352 |
| GATCGCAA | 0.118 |
| GGCAGTTA | 0.101 |
| CAACGGCA | 0.138 |
| AAATGAAC | -0.12 |
| CGCGGTCC | -0.233 |
| CATGCTTC | -0.0333 |
| CAGCTACG | -0.0204 |
| GTCATTAA | 0.385 |
| GACAGATA | 0.0295 |
| CAGACGAA | 0.324 |
| CGCTTCGA | 0.00313 |
| GGCCAGAA | -0.0972 |
| AAACCGCG | -0.0683 |
| CGAGCAAA | 0.179 |
| CCGAGATA | 0.0419 |
| ACTACTTA | 0.209 |
| TCCCGGGA | -0.231 |
| CCTCGGCA | -0.0984 |
| ACAACAAA | 0.127 |

| Sequence | PBM E-score |
| --- | --- |
| CTCTGGAA | 0.00186 |
| CACTGGAC | 0.171 |
| GCGCCTGA | -0.0596 |
| ATAGGGAT | 0.0162 |
| AAGCACCG | -0.0865 |
| CTTGCTTC | -0.101 |
| AGTTCATA | -0.139 |
| GTCACAAC | 0.212 |
| GCGAGGAC | -0.164 |
| CGACGGAA | 0.0999 |
| CCACACAC | -0.164 |
| AGAAATCA | 0.247 |
| CCCCTAGA | 0.0173 |
| ATGGAAAT | 0.0131 |
| GGGATACA | -0.0572 |
| GGCAGCGA | -0.143 |
| ACCGAGGC | -0.116 |
| GACGGTCA | 0.018 |
| GGTCTCGA | 0.0265 |
| CTCCGGAC | 0.0268 |
| AACGCGCG | 0.204 |
| CCGTCCAG | 0.0522 |
| GTGCCATA | -0.14 |
| GATGATGC | 0.152 |

In a second layout: entries from further up.
GAACGTCC
  PBM E-score: 0.019
GACAGATA
  PBM E-score: 0.0295
CCTCGGCA
  PBM E-score: -0.0984
AAGCACCG
  PBM E-score: -0.0865

Next part:

| Sequence | PBM E-score |
| --- | --- |
| GCTAAGCC | -0.231 |
| CCGCGTAG | -0.167 |
| TAACGCAA | 0.176 |
| GGATACTA | 0.0897 |
| GAACGTTA | -0.0439 |
| ACACAGGC | -0.265 |
| GGAACCAA | -0.124 |
| GATCCCCC | -0.176 |
| AAGAGTGG | -0.273 |
| CATTACGG | 0.0863 |
| GGTCTAGA | -0.0801 |
| GCGCATAC | 0.0236 |
| CACGGTAA | 0.109 |
| ATCTAAAG | -0.103 |
| CTTAGGCC | -0.169 |
| AGTTGCCG | -0.12 |
| CCGTTCAG | 0.0329 |
| CCTTTTCG | 0.121 |
| ACGTCTAA | 0.196 |
| CTCCTCAA | -0.262 |
| CGCTAGCC | -0.0921 |
| GTTCCCAA | 0.036 |
| CCGATATA | 0.0343 |
| CTCCCCAA | -0.135 |

| Sequence | PBM E-score |
| --- | --- |
| AATTATTA | 0.251 |
| GCGCAACC | -0.102 |
| CGCAACAC | -0.131 |
| AAGTCGGG | -0.122 |
| CCCAGTGA | -0.119 |
| GACTTTGA | 0.0441 |
| ATAATATC | 0.281 |
| CGTTGGTA | 0.256 |
| ACCGCCCG | -0.221 |
| CCCAGTTA | -0.2 |
| CACATGTA | 0.0379 |
| AGTCTCAT | -0.0453 |
| CTGTATTA | 0.0565 |
| CTATTGGA | 0.178 |
| CTAGGGAA | -0.0615 |
| CTCGACAC | -0.0144 |
| GTCACCGA | 0.284 |
| GGATAGTA | 0.129 |
| CTGATTAC | 0.253 |
| ACATGCAC | -0.00189 |
| CCGTAGGC | 0.026 |
| GACAGCCC | -0.139 |
